Test results as given in PubChem BioAssay AID248 (DTP/NCI, 2004).
The list is a part of this screen's results and no random one: it gathers tests that were run many times, whatever their T/C, doses with no T/C, and many T/C values between a quarter and a half above the control. Further doses and runs are listed elsewhere. T/C: endpoint of the treated group in % of that of the vehicle group. Some entries give survivors of the animals treated and no T/C: the source files T/C as zero there, which appears to mark a toxic dose or a test without result, not a measured value. Some survivor counts are full or nearly so, which does not show that the dose was tolerated: the source hardly ever lists a survival T/C far under the control, and the zero likely stands for such cases as well. Counts of survivors are from the toxicity check (mostly the fifth day) where no day follows; animals may have died later. Schedule codes are those of the source, read here as Q, the interval in days (D) or hours (H), X, the number of doses. Some schedule codes hold Z or #, which are not explained here. For survival time, the PubChem record calls one and a half times the control and up active, and a quarter to a half above the control has no call in these data; cut-offs in other NCI protocols can differ. Some T/C values carry the count of animals alive at the toxicity check (mostly the fifth day); where none is given, no animal had died by that day. Some entries were tested several times; the values are given in rising order.

Test system: L1210 leukemia ip in BDF1 mice, survival T/C
Experiment: NCI In Vivo Anticancer Drug Screen. Data for tumor model L1210 Leukemia (intraperitoneal) in B6D2F1 (BDF1) mice
Settings: T/C endpoint: mean survival time, higher T/C = longer survival
[1] = dose: 20.0 mg/kg/injection, schedule: Q01DX001 (ip), vehicle: saline
[2] = dose: 40.0 mg/kg/injection, schedule: Q01DX001 (ip), vehicle: saline
[3] = dose: 80.0 mg/kg/injection, schedule: Q01DX001 (ip), vehicle: saline
[4] = dose: 100.0 mg/kg/injection, schedule: Q04DX003 (ip), vehicle: saline with Tween-80
[5] = dose: 100.0 mg/kg/injection, schedule: Q04DX003 (ip), vehicle: Klucel (hydroxypropylcellulose) (HPC)
[6] = dose: 200.0 mg/kg/injection, schedule: Q04DX003 (ip), vehicle: Klucel (hydroxypropylcellulose) (HPC)
[7] = dose: 400.0 mg/kg/injection, schedule: Q04DX003 (ip), vehicle: saline
[8] = dose: 200.0 mg/kg/injection, schedule: Q04DX003 (ip), vehicle: saline
[9] = dose: 400.0 mg/kg/injection, schedule: Q01DX009 (ip), vehicle: saline with Tween-80
[10] = dose: 400.0 mg/kg/injection, schedule: Q01DX009 (ip), vehicle: Klucel (hydroxypropylcellulose) (HPC)
[11] = dose: 400.0 mg/kg/injection, schedule: Q04DX003 (ip), vehicle: saline with Tween-80
[12] = dose: 100.0 mg/kg/injection, schedule: Q01DX009 (ip), vehicle: saline with Tween-80

With `O=C(O)CCc1c[nH]c2ccc(N(CCCl)CCCl)cc12` the T/C (dose: 0.93 mg/kg/injection, schedule: Q01DX001 (ip), vehicle: carboxymethylcellulose (CMC)) was 130 % of control, the T/C (dose: 3.0 mg/kg/injection, schedule: Q01DX Z (ip), vehicle: carboxymethylcellulose (CMC)) was 133 % of control and the T/C (dose: 3.75 mg/kg/injection, schedule: Q01DX001 (ip), vehicle: carboxymethylcellulose (CMC)) was 143 % of control. For the same molecule, the T/C (dose: 5.0 mg/kg/injection, schedule: Q01DX001 (ip), vehicle: saline) was 146 % of control, the T/C (dose: 6.0 mg/kg/injection, schedule: Q01DX Z (ip), vehicle: carboxymethylcellulose (CMC)) was 146 % of control and the T/C (dose: 7.5 mg/kg/injection, schedule: Q01DX001 (oral), vehicle: carboxymethylcellulose (CMC)) was 144 % of control. For the same molecule, the T/C (dose: 10.0 mg/kg/injection, schedule: Q01DX001 (ip), vehicle: saline) was 148 % of control, the survivor count (dose: 12.0 mg/kg/injection, schedule: Q01DX Z (ip), vehicle: carboxymethylcellulose (CMC)) was 3 of 6 and the T/C [1] was 148 % of control. For the same molecule, the T/C (dose: 20.0 mg/kg/injection, schedule: Q01DX001 (oral), vehicle: saline) was 142 % of control, the survivor count (dose: 30.0 mg/kg/injection, schedule: Q01DX001 (oral), vehicle: carboxymethylcellulose (CMC)) was 6 of 6 and the survivor count [2] was 2 of 6. For the same molecule, the survivor count (dose: 40.0 mg/kg/injection, schedule: Q01DX001 (oral), vehicle: saline) was 5 of 6, the survivor count [3] was 3 of 6 and the survivor count (dose: 80.0 mg/kg/injection, schedule: Q01DX001 (oral), vehicle: saline) was 5 of 6. The survivor count (dose: 160.0 mg/kg/injection, schedule: Q01DX001 (oral), vehicle: saline) was 2 of 6 and the survivor count (dose: 320.0 mg/kg/injection, schedule: Q01DX001 (oral), vehicle: saline) was 1 of 6.
With `CCCCCCCCCCCCN1CCSCC1` the T/C [4] was 90, 97, 98 [5 of 6 alive], 126 % of control.
`OC1CC=CC=CC1` was tested, and the survivor count (dose: 300.0 mg/kg/injection, schedule: Q01DX001 (ip), vehicle: saline) was 2 of 6.
`CC[CH2][Pb]([CH2]CC)([CH2]CC)[O]C(C)=O` was tested, and the survivor count (dose: 25.0 mg/kg/injection, schedule: Q04DX003 (ip), vehicle: Klucel (hydroxypropylcellulose) (HPC)) was 3 of 6, the survivor count (dose: 50.0 mg/kg/injection, schedule: Q04DX003 (ip), vehicle: Klucel (hydroxypropylcellulose) (HPC)) was 0 of 6 and the survivor count [5] was 0 of 6. The survivor count (dose: 200.0 mg/kg/injection, schedule: Q01DX001 (ip), vehicle: saline) was 2 of 4, the survivor count [6] was 0 of 6 and the survivor count (dose: 400.0 mg/kg/injection, schedule: Q01DX001 (ip), vehicle: saline) was 0 of 4.
In the case of `Cc1cc(C2=NCCN2)ccc1NC(=O)c1ccc(C(=O)Nc2ccc(C3=NCCN3)cc2C)cc1`, the survivor count (dose: 120.0 mg/kg/injection, schedule: Q01DX Z (ip), vehicle: saline) is reported as 3 of 6.
`CN1CCC(CO)(c2ccccc2)C1` (stereo not given) was tested, and the survivor count (dose: 300.0 mg/kg/injection, schedule: Q01DX001 (ip), vehicle: carboxymethylcellulose (CMC)) was 0 of 6.
In the case of `CCOCCCN`, the survivor count (dose: 200.0 mg/kg/injection, schedule: Q01DX009 (ip), vehicle: saline) is reported as 2 of 6 and the survivor count [7] is reported as 3 of 6.
`CN1CCN(C(c2ccccc2)c2ccc(Cl)cc2)CC1` (stereo not given) was tested, and the survivor count (dose: 100.0 mg/kg/injection, schedule: Q01DX009 (ip), vehicle: saline) was 0 of 6 and the survivor count [8] was 0 of 4.
In the case of `NNC(=O)c1cnccn1`, the T/C (dose: 100.0 mg/kg/injection, schedule: Q01DX015 (ip), vehicle: water) is reported as 131 % of control, the survivor count (dose: 128.0 mg/kg/injection, schedule: Q01DX015 (ip), vehicle: water) is reported as 0 of 6 and the survivor count (dose: 200.0 mg/kg/injection, schedule: Q01DX001 (ip), vehicle: water) is reported as 0 of 4. For the same molecule, the survivor count (dose: 256.0 mg/kg/injection, schedule: Q01DX015 (ip), vehicle: water) was 0 of 6 and the survivor count (dose: 400.0 mg/kg/injection, schedule: Q01DX001 (ip), vehicle: water) was 0 of 4.
In the case of `NC(CSS(=O)(=O)O)=NCC1CC2CCC1C2` (stereo not given), the survivor count (dose: 100.0 mg/kg/injection, schedule: Q04DX002 (ip), vehicle: saline with Tween-80) is reported as 0 of 3, the survivor count (dose: 200.0 mg/kg/injection, schedule: Q04DX002 (ip), vehicle: saline with Tween-80) is reported as 0 of 3 and the survivor count (dose: 400.0 mg/kg/injection, schedule: Q04DX002 (ip), vehicle: saline with Tween-80) is reported as 0 of 3.
In the case of `COc1ccc(Cl)cc1NC(=O)N/N=C(\C)CC(C)C`, the survivor count [9] is reported as 6 of 6.
With `CC(=O)Nc1cc(Cl)c(Cl)c([N+](=O)[O-])c1` the survivor count [10] was 0 of 6.
`CN(C)CCCC#N` was tested, and the survivor count [7] was 1 of 6.
For `O=C(CC(=Nc1ccccc1)c1ccccc1)c1ccccc1.O=C(CC(=Nc1ccccc1)c1ccccc1)c1ccccc1.[Cu]`, the survivor count (dose: 25.0 mg/kg/injection, schedule: Q04DX003 (ip), vehicle: saline with Tween-80) was 6 of 6, the survivor count [4] was 6 of 6 and the survivor count (dose: 200.0 mg/kg/injection, schedule: Q04DX003 (ip), vehicle: saline with Tween-80) was 0 of 6. The survivor count [11] was 0 of 6.
`CCCCCCCCCCCC1=NCCN1` was tested, and the survivor count (dose: 50.0 mg/kg/injection, schedule: Q01DX009 (ip), vehicle: saline with Tween-80) was 1 of 6, the survivor count [12] was 1 of 6 and the survivor count (dose: 100.0 mg/kg/injection, schedule: Q04DX003 (ip), vehicle: saline) was 4 of 6. For the same molecule, the survivor count [8] was 0 of 6 and the survivor count [7] was 0 of 6.
For `CC(C)(Cc1ccccc1)C(C(=O)O)C(=O)O`, the survivor count (dose: 400.0 mg/kg/injection, schedule: Q01DX001 (ip), vehicle: gum acacia) was 2 of 6.
For `COC(OC)C1C=CC=CC=C1`, the survivor count [12] was 5 of 6 and the survivor count [9] was 1 of 6.
`C#CC(O)c1ccccc1` (stereo not given) was tested, and the survivor count [5] was 1 of 6, the survivor count [6] was 0 of 6 and the survivor count (dose: 400.0 mg/kg/injection, schedule: Q04DX003 (ip), vehicle: Klucel (hydroxypropylcellulose) (HPC)) was 0 of 6.
In the case of `C1=C(c2ccccc2)N2CCN=C2S1`, the survivor count (dose: 100.0 mg/kg/injection, schedule: Q01DX001 (ip), vehicle: carboxymethylcellulose (CMC)) is reported as 2 of 4, the survivor count (dose: 200.0 mg/kg/injection, schedule: Q01DX001 (ip), vehicle: carboxymethylcellulose (CMC)) is reported as 0 of 4 and the survivor count (dose: 400.0 mg/kg/injection, schedule: Q01DX001 (ip), vehicle: carboxymethylcellulose (CMC)) is reported as 0 of 4.
In the case of `C=C1C(=O)O[C@@H]2C[C@@H](C)[C@@H]3CC(=O)OC[C@@]3(C)C[C@H]12`, the survivor count [11] is reported as 0 of 6.
For `CSc1nccc(NN=C2CCCCC2)n1`, the survivor count [10] was 5 of 6.
For `OCC1OC(n2cc(Br)c3c(NO)ncnc32)C(O)C1O` (stereo not given), the survivor count [1] was 0 of 4, the survivor count [2] was 0 of 4 and the survivor count [3] was 0 of 4.
